Measured values reported in PubChem BioAssay AID493014 (National Center for Advancing Translational Sciences (NCATS), 2011).
The other results are listed elsewhere or left out. These are further read-outs of the screen, such as a control signal, another cell line or another target. No call is given for them. Compounds called inactive in the main read-out are mostly missing here. Potencies come from curve fits of mixed quality, noted in brackets.

Test: qHTS Assay to Find Inhibitors of Chronic Active B-Cell Receptor Signaling
Settings: ABC-DLBCL IkBa-CBG/CBR reporter, luminescence ratio (green luciferase fused to IkBa over red control in TMD8 lymphoma cells), 4 h
Procedure, shortened: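 TMD8 ABC-DLBCL cells carrying doxycycline-inducible green luciferase fused to IkappaBalpha plus unfused red luciferase were exposed to compounds (up to 46 uM) for 4 hrs at 37C. Activity came from the overlap-corrected green/red luminescence ratio.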

[1] = measured here: CBR red luminescence, cell number
[2] = measured here: IkBa-CBG green luminescence

Compound | AC50 [1] | AC50 [2]
O=c1[nH]nc(Sc2ncnc3sccc23)n1CCc1ccccc1 | 7.94 µM [falling, partial curve, poor fit] | –
COc1ccc(/C=C/C(=O)Nc2ccccc2)cc1OC | 1.41 µM [falling, full curve] | –
COc1ccc(N2CCN(c3ccc([N+](=O)[O-])nc3)CC2)cc1 | 11.2 µM [rising, single point] | –
COc1cccc(C(=O)CSc2nnc(COc3cccc4cccnc34)o2)c1 | 0.731 µM [falling, full curve, poor fit] | –
CCCc1nc(SCC(=O)c2ccc(OC)cc2)c2ccccc2n1 | 14.1 µM [falling, single point] | –
Fc1ccc(-c2csc(Nc3ccccn3)n2)c(F)c1 | 14.1 µM [falling, partial curve] | –
COCCCNC(=O)C1c2ccccc2Oc2ccccc21 | 0.501 µM [rising, full curve, poor fit] | –
Cc1ccc(N2CCC(N3CCN(C4CCCCC4)C(CCO)C3)CC2)cc1 (centres undefined) | 6.31 µM [rising, single point] | –
COc1ccc(-c2cc(C(=O)N3CCCc4ccccc43)no2)cc1OC | 12.6 µM [falling, partial curve] | –
c1ccc(-c2ccccc2OCCOCCN2CCCCC2)cc1 | 32.6 µM [falling, single point] | –
CC(=O)C1=C(O)C(=O)N(Cc2ccccc2)C1c1ccc(Br)cc1 (centres undefined) | 12.6 µM [rising, single point] | –
Cc1cccc(NC(=O)c2cc(-c3c(C)cc(C)cc3O)n[nH]2)c1 | 11.2 µM [falling, partial curve, poor fit] | –
Cc1ccc(/C=N/NC(=O)c2cccc(NC(=O)c3ccccc3Cl)c2)o1 | 11.2 µM [falling, partial curve] | –
COc1cccc(NC(=O)Nc2cccc(C(=O)O)c2)c1 | 1.78 µM [falling, full curve] | –
COc1ccc(NC(=O)c2cc(S(=O)(=O)NCCC3=CCCCC3)ccc2F)cc1 | 15.8 µM [falling, single point] | –
O=C(COC(=O)Cc1c(Cl)cccc1Cl)NCC1CCCO1 (centres undefined) | 2.82 µM [rising, full curve, poor fit] | –
FC(F)(F)c1ccc(-c2noc(-c3ccccc3Br)n2)cc1 | 4.47 µM [rising, partial curve, poor fit] | –
CCCc1nc(SCC(=O)Nc2nccs2)c2ccccc2n1 | 1.58 µM [falling, full curve, poor fit] | –
COc1cc(/C=C/C(=O)OCC(=O)N2CCCC2)ccc1OCC#N | 23.1 µM [rising, single point] | –
CN(C)/C=N/C(=S)Nc1ccccc1Cl | 0.562 µM [falling, full curve] | –
CCC(=O)c1cc2c(cc1NC(=O)c1ccc(C)cc1)OCCO2 | 2.59 µM [rising, full curve, poor fit] | –

Compound | AC50 [1] | AC50 [2]
Cc1nc(C)c(CCNC(=O)c2cccc(Cl)c2)s1 | 16.4 µM [falling, single point] | –
O=C(CSc1nnc(-c2cccnc2)o1)Nc1ccc(Br)cc1 | 3.55 µM [rising, full curve] | –
O=C(CSc1ccc(-c2ccc(F)cc2)nn1)Nc1ccc2c(c1)OCCO2 | 25.9 µM [rising, single point] | –
CC(C)CC(=O)N/C(N)=N/c1nc2ccccc2o1 | 3.16 µM [falling, full curve] | –
C/C(CC(=O)Nc1ccc(Cl)cc1C(F)(F)F)=N\NC(=O)c1ccccn1 | 11.2 µM [falling, partial curve] | –
CC(=O)Nc1ccc(S(=O)(=O)NCC(=O)OCC(=O)NC(=O)c2cccn2C)cc1 | 2.82 µM [rising, single point] | –
COc1cc(NC(=S)NN2CCN(C)CC2)cc(OC)c1 | 32.6 µM [rising, partial curve, poor fit] | –
O=C(NCCN1CCN(C(=O)c2ccc([N+](=O)[O-])cc2)CC1)C(=O)Nc1ccc(F)cc1 | 1.41 µM [falling, full curve, poor fit] | –
COc1ccc(NS(=O)(=O)c2cccc(Cl)c2Cl)cc1S(=O)(=O)N1CCCCC1 | 1.84 µM [falling, full curve, poor fit] | 1.3 µM [rising, partial curve, poor fit]
N#Cc1nc(-c2cccc3ccccc23)oc1N | 6.51 µM [falling, single point] | –
O=C(NCCc1ccccc1)C(=O)c1cn(CC(=O)N2CCCC2)c2ccccc12 | 1.41 µM [falling, full curve] | –
Nn1c(COc2cccc(Br)c2)nnc1SCC(=O)NCC1CCCO1 (centres undefined) | 0.461 µM [rising, full curve, poor fit] | –
O=C(Nc1cc(=O)[nH]c2ncnn12)c1ccco1 | 20 µM [rising, single point] | –
NC(=O)c1ccsc1NC(=O)COC(=O)Cc1cccc2ccccc12 | 11.6 µM [falling, partial curve] | –
CC1CCCCC1NC(=O)C(=O)NCC1CCCO1 (centres undefined) | 7.31 µM [falling, partial curve, poor fit] | –
O=c1c2cn[nH]c2nc(SCc2ccccc2F)n1-c1ccc(Br)cc1 | 25.9 µM [falling, partial curve] | 29.1 µM [rising, partial curve, poor fit]
COc1ccc2c(c1)C(SCC(=O)NCCc1ccc(Cl)cc1)CC(C)(C)O2 (centres undefined) | 29.1 µM [falling, partial curve, poor fit] | –
Cc1cccc(/C=N/N2CCN(c3ccccc3)CC2)c1 | 7.31 µM [rising, partial curve, poor fit] | –
CCCCN(Cc1ccccc1)C(=O)C1CCN(S(=O)(=O)c2c(C)noc2C)CC1 | 20.6 µM [rising, partial curve, poor fit] | –
COC(=O)C1CCN(S(=O)(=O)c2ccc(OC)cc2)CC1 | 0.184 µM [rising, full curve, poor fit] | –
CC(C)N(Cc1nc(-c2ccccc2)no1)S(=O)(=O)c1ccccc1 | 9.2 µM [rising, partial curve] | –

Some of these compounds in order of formula weight, ascending.
Compound | AC50 [1] | AC50 [2]
Cc1cccc(/C=N/N2CCN(c3ccccc3)CC2)c1 | 7.31 µM [rising, partial curve, poor fit] | –
CC(C)N(Cc1nc(-c2ccccc2)no1)S(=O)(=O)c1ccccc1 | 9.2 µM [rising, partial curve] | –
O=C(CSc1ccc(-c2ccc(F)cc2)nn1)Nc1ccc2c(c1)OCCO2 | 25.9 µM [rising, single point] | –
